Test results published in patent publication US20220409620A1, “REDUCING IMMUNOGENICITY TO PEGLOTICASE” (Horizon Pharma Rheumatology LLC, priority 2016, published 2022).
This continues a long series; more values of the same kind are listed elsewhere.

Test system: adult patients with uncontrolled gout
Assay: Serum uric acid (sUA) levels and sUA responder rate, open-label study of pegloticase with MTX (MIRROR OL)
Assay type: in vivo, human
Protocol: The primary objective is to estimate the response rate during Month 6 (Weeks 20, 22, and 24), as measured by the sustained normalization of serum uric acid (SUA) to <6 mg/dL for at least 80% of the time during Month 6 in subjects receiving KXX with MTX.
The primary efficacy outcome endpoint is the sustained normalization of SUA to <6 mg/dL for at least 80% of the time during month 6 (weeks 20, 22, and 24) in subjects receiving KXX with MTX. […] Participants who achieve this endpoint were classified as “responders.” Serum uric acid (SUA) responders may also be defined as participants achieving and maintaining SUA <6 mg/dL for at least 80% of the time during Month 6 (Weeks 20, 22, and 24).
Blood samples may be collected prior to each pegloticase infusion for measurement of SUA levels using the Beckman Coulter AU System Uric Acid procedure. Participants were declared “non-responders” if there were SUA measures >6 mg/dL at 2 consecutive study visits beginning with the week 2 visit. […] This assumption and subsequent discontinuation of pegloticase was consistent with the protocol of large phase III randomized controlled trials and the product label. A formal stopping rule was 2 occasions of SUA levels of greater than 6 mg/dL.
Clinical Chemistry—Blood samples were collected prior to each pegloticase infusion for measurement of SUA levels (primary efficacy parameter) using the Beckman Coulter AU System Uric Acid procedure. In this procedure uric acid is converted to hydrogen peroxide. Hydrogen peroxide reacts with reagent to produce a chromophore which is read bichromatically at 660/800 nm. The amount of dye formed is proportional to the uric acid concentration in the sample.
Serum samples for measurement of SUA levels were collected at the Screening Visit, the Week −4 Visit (prior to the first dose of MTX), and the Week −2 Visit during the MTX Run-in Period; within 48 hours prior to each pegloticase infusion and after the end of each pegloticase infusion prior to discharge from the site during the Pegloticase+IMM Period; at the non-infusion Week 52/End of Study/Early Termination Visits and at the Post Treatment 3 and 6 Month Follow-up Visits. Additional serum samples for SUA levels were collected at optional non-infusion (Frequent Sampling) Visits at Weeks 1 and 7. […] Subjects with SUA level >6 mg/dL at 2 consecutive visits beginning at Week 2 visit discontinued treatment, completed the End of Pegloticase Infusion Visit procedures within 2 weeks and continued the subject visits according to the protocol (without treatment).
Efficacy analyses were performed using the modified intention-to-treat (mITT) population, defined as all enrolled subjects who received ≥1 dose of pegloticase. The proportion of Month 6 responders was summarized, along with a 95% confidence interval for the proportion. The proportion of Month 3 and overall (Months 3 and 6 combined) responders was analyzed similarly.
A subject was declared a non-responder if the subject had SUA level >6 mg/dL at 2 consecutive study visits beginning with the Week 2 Visit. In addition, a subject who withdraws from study treatment for any reason after the first dose of pegloticase in the KXX+MTX Period and prior to Month 6 (for the primary endpoint) or Month 3 (for the secondary endpoint) was considered a non-responder if SUA values were not collected at the planned time points.
Patients were administered oral MTX (15 mg/week) and folate (1 mg/day) 4 weeks prior to the first pegloticase infusion (Day 1) and throughout the pegloticase treatment period. Blood was drawn prior to each infusion to measure sUA level, monitor clinical parameters, and examine for ADA development. All patients followed typical IR prophylaxis protocols (fexofenadine one day before and the morning of each infusion and acetaminophen and IV corticosteroid the morning of each infusion).

[1] = Month 6 sUA Non-Responders, Week 4-Post-Infusion, n=2
[2] = Month 6 sUA Non-Responders, Week 6-Post-Infusion, n=1
[3] = Month 6 sUA Non-Responders, Week 6-Pre-Infusion, n=2
[4] = Month 6 sUA Responders, Week 4-Post-Infusion, n=11
[5] = Month 6 sUA Responders, Week 6-Post-Infusion, n=11
[6] = Month 6 sUA Responders, Week 6-Pre-Infusion, n=11
[7] = Month 6 sUA Responders, Week 7, n=4

## pegloticase
[1]
  Serum Uric Acid, Change from Baseline, Mean (SD): −8.60 (0.707) mg/dL
  Serum Uric Acid, Change from Baseline, Median: -8.60 mg/dL
  Serum Uric Acid, Observed, Mean (SD): 0.30 (0.000) mg/dL
  Serum Uric Acid, Observed, Median: 0.30 mg/dL
  sUA <6 mg/dL, n (%): 2 (100%)
Month 6 sUA Non-Responders, Week 4-Pre-Infusion, n=3
  sUA <6 mg/dL, n (%): 1 ( 33.3%)
[2]
  Serum Uric Acid, Change from Baseline, Mean (SD): −9.10 (NE) mg/dL
  Serum Uric Acid, Change from Baseline, Median: -9.10 mg/dL
  Serum Uric Acid, Observed, Mean (SD): 0.30 (NE) mg/dL
  Serum Uric Acid, Observed, Median: 0.30 mg/dL
  sUA <6 mg/dL, n (%): 1 (100%)
[3]
  Serum Uric Acid, Change from Baseline, Mean (SD): −4.65 (6.293) mg/dL
  Serum Uric Acid, Change from Baseline, Median: -4.65 mg/dL
  Serum Uric Acid, Observed, Mean (SD): 4.25 (5.586) mg/dL
  Serum Uric Acid, Observed, Median: 4.25 mg/dL
  sUA <6 mg/dL, n (%): 1 ( 50.0%)
[4]
  Serum Uric Acid, Change from Baseline, Median: -8.80 mg/dL
  Serum Uric Acid, Observed, Median: 0.30 mg/dL
  sUA <6 mg/dL, n (%): 11 (100%)
[5]
  Serum Uric Acid, Change from Baseline, Mean (SD): −8.97 (2.810) mg/dL
  Serum Uric Acid, Change from Baseline, Median: -8.80 mg/dL
  Serum Uric Acid, Observed, Mean (SD): 0.30 (0.000) mg/dL
  Serum Uric Acid, Observed, Median: 0.30 mg/dL
  sUA <6 mg/dL, n (%): 11 (100%)
[6]
  Serum Uric Acid, Change from Baseline, Mean (SD): −8.97 (2.810) mg/dL
  Serum Uric Acid, Change from Baseline, Median: -8.80 mg/dL
  Serum Uric Acid, Observed, Mean (SD): 0.30 (0.000) mg/dL
  Serum Uric Acid, Observed, Median: 0.30 mg/dL
  sUA <6 mg/dL, n (%): 11 (100%)
[7]
  Serum Uric Acid, Change from Baseline, Mean (SD): −8.90 (4.755) mg/dL
  Serum Uric Acid, Change from Baseline, Median: -7.85 mg/dL
  Serum Uric Acid, Observed, Mean (SD): 0.30 (0.000) mg/dL
  Serum Uric Acid, Observed, Median: 0.30 mg/dL
